PubChem BioAssay AID493246 – Drosophila RNAi Screening Center | 2011
Assay: 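Genome-wide search for dsRNAs that reduce cell number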 (primary screen). Cells: Drosophila Kc and S2R+ cells. Reagent: long dsRNA against Drosophila genes. Measurement: 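Raw, unnormalised count of remaining cells in each well; per-plate z-scores of cell number underlie the calls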. Reading the numbers: Kc cell number and S2R+ cell number: higher = more cells remaining. Call rule: 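Active when the per-plate z-score of cell number is 3 or more in the direction of fewer cells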.
In all, the deposit lists about 21,000 reagents; below is an unselected part of those with a known target gene and a result. Of all reagents, 429 (2%) were called active. 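Values are raw and not normalised between plates; calls rest on per-plate z-scores that were not deposited.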 A number with no mark means an inactive call. Not given: the amount of reagent, the time to read-out.

| Gene | amplicon | Kc cell number, rep 1 | Kc cell number, rep 2 | S2R+ cell number, rep 1 | S2R+ cell number, rep 2 |
| --- | --- | --- | --- | --- | --- |
| TwdlS (TweedleS) | DRSC14737 | 1.51e6 | 1.59e6 | 1.01e6 | 1.16e6 |
| Ip259 (Intronic Protein 259) | DRSC03352 | 1.19e6 | 1.33e6 | 7.90e5 | 8.56e5 |
| CG14759 | DRSC06494 | 1.59e6 | 1.59e6 | 1.39e6 | 1.49e6 |
| btsz (bitesize) | DRSC14982 | 1.33e6 | 1.36e6 | 7.59e5 | 8.72e5 |
| btsz (bitesize) | DRSC16231 | 1.35e6 | 1.33e6 | 1.11e6 | 1.28e6 |
| Nek2 | DRSC18124 | 6.54e5 | – | 1.01e6 | – |
| CG13912 | DRSC08381 | 1.39e6 | 1.31e6 | 1.04e6 | 1.21e6 |
| Rbpn-5 (Rabaptin-5) | DRSC04440 | 1.26e6 | 1.39e6 | 1.12e6 | 1.17e6 |
| ATPsynGL (ATP synthase, subunit G-like) | DRSC03027 | 1.61e6 | 1.67e6 | 1.21e6 | 1.37e6 |
| Awh (Arrowhead) | DRSC08140 | 1.40e6 | 1.28e6 | 1.01e6 | 1.20e6 |
| Task7 (TWIK-related acid-sensitive K[+] channel 7) | DRSC16477 | 1.60e6 | 1.63e6 | 1.26e6 | 1.41e6 |
| CG11695 | DRSC19416 | 1.58e6 | 1.53e6 | 1.02e6 | 1.10e6 |
| scyl (scylla) | DRSC11392 | 1.33e6 | 1.25e6 | 1.32e6 | 1.36e6 |
| betaNACtes4 (Nascent-associated complex beta-subunit-like, testis 4) | DRSC19801 | 1.46e6 | 1.45e6 | 1.00e6 | 1.09e6 |
| Brd7-9 (Bromodomain containing 7/9) | DRSC03017 | 1.45e6 | 1.50e6 | 6.01e5 | 8.68e5 |
| Abp1 (Actin binding protein 1) | DRSC09693 | 1.33e6 | 1.51e6 | 1.28e6 | 1.35e6 |
| CG14500 | DRSC06471 | 1.52e6 | 1.62e6 | 1.21e6 | 1.27e6 |
| CG8478 | DRSC16427 | 1.59e6 | 1.75e6 | 1.26e6 | 1.39e6 |
| sala (spalt-adjacent) | DRSC03605 | 1.71e6 | 1.66e6 | 1.23e6 | 1.47e6 |
| CG13771 | DRSC02277 | 1.50e6 | 1.39e6 | 1.12e6 | 1.21e6 |
| retn (retained) | DRSC04679 | 1.55e6 | 1.58e6 | 1.24e6 | 1.37e6 |
| Pep (Protein on ecdysone puffs) | DRSC11252 | 1.65e6 | 1.72e6 | 1.17e6 | 1.20e6 |
| CG1324 | DRSC20496 | 1.50e6 | 1.55e6 | 1.04e6 | 1.09e6 |
| Kal1 (Kallmann syndrome 1) | DRSC15983 | 1.42e6 | 1.47e6 | 1.08e6 | 1.09e6 |
| Grl40a (Gustatory receptor-like 40a) | DRSC03677 | 5.10e5 | – | 8.65e5 | – |
| CG13247 | DRSC11695 | 1.39e6 | 1.54e6 | 1.23e6 | 1.32e6 |
| Snrk (SNF related kinase) | DRSC07192 | 1.34e6 | 1.47e6 | 1.08e6 | 1.17e6 |
| Alp6 (Alkaline phosphatase 6) | DRSC06710 | 1.32e6 | 1.33e6 | 1.14e6 | 1.08e6 |
| Syt7 (Synaptotagmin 7) | DRSC17130 | 1.58e6 | 1.57e6 | 1.09e6 | 1.19e6 |
| Syt7 (Synaptotagmin 7) | DRSC17159 | 1.64e6 | 1.64e6 | 1.06e6 | 1.15e6 |
| CG14561 | DRSC11722 | 1.51e6 | 1.55e6 | 1.40e6 | 1.49e6 |
| CG14572 | DRSC11733 | 1.37e6 | 1.50e6 | 1.26e6 | 1.33e6 |
| rswl (roswell) | DRSC06923 | 1.39e6 | 1.45e6 | 1.21e6 | 1.25e6 |
| CG5618 | DRSC11780 | 1.85e6 | 2.00e6 | 1.21e6 | 1.27e6 |
| Bbd (Bombardier) | DRSC06709 | 1.68e6 | 1.61e6 | 1.21e6 | 1.41e6 |
| sowah (sosondowah) | DRSC09186 | 1.53e6 | 1.51e6 | 1.25e6 | 1.42e6 |
| sowah (sosondowah) | DRSC09758 | 1.34e6 | 1.42e6 | 1.25e6 | 1.17e6 |
| CG12289 | DRSC09874 | 1.27e6 | 1.38e6 | 1.29e6 | 1.36e6 |
| CG18810 | DRSC02701 | 1.62e6 | 1.74e6 | 1.23e6 | 2.69e5 |
| CG1288 | DRSC12538 | 1.43e6 | 1.44e6 | 1.22e6 | 1.34e6 |

Targets above whose target name begins with A or a (4):
| Gene | amplicon | Kc cell number, rep 1 | Kc cell number, rep 2 | S2R+ cell number, rep 1 | S2R+ cell number, rep 2 |
| --- | --- | --- | --- | --- | --- |
| ATPsynGL (ATP synthase, subunit G-like) | DRSC03027 | 1.61e6 | 1.67e6 | 1.21e6 | 1.37e6 |
| Awh (Arrowhead) | DRSC08140 | 1.40e6 | 1.28e6 | 1.01e6 | 1.20e6 |
| Abp1 (Actin binding protein 1) | DRSC09693 | 1.33e6 | 1.51e6 | 1.28e6 | 1.35e6 |
| Alp6 (Alkaline phosphatase 6) | DRSC06710 | 1.32e6 | 1.33e6 | 1.14e6 | 1.08e6 |
